From patent US20240287138A1, “CYCLIC PEPTIDES FOR INHIBITING TNF RECEPTOR 1 ACTIVITY” (Merck Sharp & Dohme LLC, priority 2023, published 2024)
For at least one compound, name, drawing or mass did not settle the structure. Numbered stars: 1 amine (or outer) side, 2 acyl side, 3 side chain; on linkers, the order of the positions; unused ones are H or OH. Bridge positions count the residues as written; N and C are the ends. Square brackets hold non-standard residues; d marks the D form. Peptide text beside a SMILES is read from it. Trp(βS-Me,7-OMe) = COc1cccc2c([C@H](C)[C@H](N)C(=O)O)c[nH]c12; X16 = O=C([C@H]1C[C@@H](N[*:1])[C@H](O)[C@@H]1O)[*:2]; Trp(7-CN) = N#Cc1cccc2c(C[C@H](N)C(=O)O)c[nH]c12; Trp(7-Cl) = N[C@@H](Cc1c[nH]c2c(Cl)cccc12)C(=O)O; Phe(3-CONH2) = NC(=O)c1cccc(C[C@H](N)C(=O)O)c1; Phe(4-CONH2) = NC(=O)c1ccc(C[C@H](N)C(=O)O)cc1; Phe(4-COOH) = N[C@@H](Cc1ccc(C(=O)O)cc1)C(=O)O; Trp(7-aza) = N[C@@H](Cc1c[nH]c2ncccc12)C(=O)O; Pip(5R-OH) = O=C(O)[C@@H]1CC[C@@H](O)CN1; αMeW = C[C@](N)(Cc1c[nH]c2ccccc12)C(=O)O; X1 = O=C([C@@H]1CC[C@H](N[*:1])C1)[*:2]; X57 = O=C([C@H](c1ccccc1)[*:2])[*:1]; N(CH2CH2COOH)Gly = O=C(O)CCNCC(=O)O; X26 = O=C(C1CC(N[*:1])C(O)C1O)[*:2]; Pip(4-aza) = O=C(O)[C@@H]1CNCCN1; 4Pal = N[C@@H](Cc1ccncc1)C(=O)O; NMeE = CN[C@@H](CCC(=O)O)C(=O)O; dHyp = O=C(O)[C@H]1C[C@H](O)CN1; Pip = O=C(O)[C@@H]1CCCCN1; αMeS = C[C@](N)(CO)C(=O)O; Nle = CCCC[C@H](N)C(=O)O; Sar = CNCC(=O)O

Biological target: T1, TNFα-induced NF-κB signal transduction pathway (TNFR1 signaling) in THP-1 cells (Homo sapiens, UniProt P19438)
T1 sequence (P19438 30-455): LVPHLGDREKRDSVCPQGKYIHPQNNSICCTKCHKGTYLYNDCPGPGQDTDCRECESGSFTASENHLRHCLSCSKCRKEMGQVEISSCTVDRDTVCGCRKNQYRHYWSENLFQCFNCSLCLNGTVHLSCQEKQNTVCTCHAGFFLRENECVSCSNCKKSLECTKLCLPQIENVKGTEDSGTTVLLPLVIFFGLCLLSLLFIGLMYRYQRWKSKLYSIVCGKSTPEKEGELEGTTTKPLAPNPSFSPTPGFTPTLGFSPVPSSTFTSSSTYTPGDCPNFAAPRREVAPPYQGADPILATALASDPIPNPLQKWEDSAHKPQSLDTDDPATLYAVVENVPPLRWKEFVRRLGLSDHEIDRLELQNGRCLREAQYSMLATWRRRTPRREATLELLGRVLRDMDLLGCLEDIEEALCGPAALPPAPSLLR
Experiment: THP-1 Lucia NF-κB reporter cell assay, inhibition of TNFα-induced NF-κB signaling
Assay type: cell-based
Settings: THP-1 NF-κB Lucia reporter cells, 10 ng/mL TNFα, 16-18 h, secreted luciferase
Experimental: C. Procedure for THP-1 Lucia NF-κB cells
The inhibition of TNFα-induced NF-κB signal transduction pathways was evaluated in THP-1 cells. THP-1 cells harboring NF-κB-inducible Lucia™ reporter gene (InvivoGen, cat. #thp1-nfkb) designed for monitoring NF-κB signal transduction pathway was employed to assess the inhibitory effect macrocyclic peptides on TNFR1 signaling. The cells were cultured in media containing RPMI 1640, 2 mM L-glutamine, 25 mM HEPES, 10% heat-inactivated fetal bovine serum with appropriate selection antibiotics. Assays were performed in media that was devoid of selection antibiotics. For profiling, 125 nL of peptides in DMSO (10 mM) were dispensed into Falcon® 384-well Optilux white/clear flat bottom TC-treated microtest microplate (Corning, cat. #353963) using Echo® 555. […] A suspension of 1 million cells/mL was dispensed at 20 μL/well in a 384-well plate to a density of 20,000 cells/well and pre-incubated with peptides at 37° C. for 1 h. Subsequently, 5 μL of TNF containing media (recombinant human TNFα; R&D Systems USA, cat. #210-TA-005/CF) or TNF-free media (for controls) was added to the wells. The final concentration of TNFα in the assay in 10 ng/mL. After o.n. incubation at 37° C. (16-18 h), 5 μL of supernatant was aspirated and transferred to a 384-well microplate (PerkinElmer, cat. #6007680) for measurement of secreted luciferase activity with 25 μL of QUANTI-Luc™ luminescence assay reagent (InvivoGen, cat. #rep-qlc1) in each well. The luminescence was measured in EnVision® Multimode Plate Reader (PerkinElmer). Dose response curves were analyzed using a 4-parameter logistic model to calculate IC50 values, reported in Table 2, using TIBCO® Spotfire® software employing appropriate Minimum and Maximum controls.

SMILES | IC50 [nM]
CCCC[C@@H]1NC(=O)C2CC(NC(=O)[C@H]([C@@H](C)c3c[nH]c4c(OC)cccc34)NC(=O)CN(C)C(=O)[C@H](Cc3ccc(C(=O)O)cc3)NC(=O)[C@H](Cc3ccc(C(N)=O)cc3)NC(=O)[C@](C)(CO)NC(=O)[C@H](Cc3c[nH]c4c(C#N)cccc34)NC(=O)[C@H](Cc3ccc(C(=O)O)cc3)NC(=O)[C@H](CC(N)=O)NC(=O)[C@H]3C[C@H](O)CN3C(=O)[C@H](Cc3c[nH]c4ncccc34)NC(=O)[C@@H]3CC[C@@H](O)CN3C(=O)[C@H](Cc3ccncc3)NC1=O)C(O)C2O (stereo partly drawn) [SEQ ID NO. 12] (cyclo([X26][Nle][4Pal][Pip(5R-OH)][Trp(7-aza)][dHyp]N[Phe(4-COOH)][Trp(7-CN)][αMeS][Phe(4-CONH2)][Phe(4-COOH)][Sar][Trp(βS-Me,7-OMe)])) | 0.6
CCCC[C@@H]1NC(=O)[C@H]2C[C@@H](NC(=O)[C@H]([C@@H](C)c3c[nH]c4c(OC)cccc34)NC(=O)CN(C)C(=O)[C@H](Cc3ccc(O)cc3)NC(=O)[C@H](Cc3ccc(C(=O)O)cc3)NC(=O)[C@](C)(CO)NC(=O)[C@H](Cc3c[nH]c4c(Cl)cccc34)NC(=O)[C@H](Cc3ccncc3)NC(=O)[C@H](CC(N)=O)NC(=O)[C@H](CCC(=O)O)N(C)C(=O)[C@H](Cc3c[nH]c4ccccc34)NC(=O)[C@@H]3CNCCN3C(=O)[C@H](Cc3ccncc3)NC1=O)[C@H](O)[C@@H]2O [SEQ ID NO. 20] (cyclo([X16][Nle][4Pal][Pip(4-aza)]W[NMeE]N[4Pal][Trp(7-Cl)][αMeS][Phe(4-COOH)]Y[Sar][Trp(βS-Me,7-OMe)])) | 0.8
CCCC[C@@H]1NC(=O)[C@H](c2ccccc2)SC[C@@H](C(N)=O)NC(=O)[C@](C)(Cc2c[nH]c3ccccc23)NC(=O)CN(C)C(=O)[C@H](Cc2ccc(O)cc2)NC(=O)[C@H](Cc2ccc(C(=O)O)cc2)NC(=O)[C@](C)(CO)NC(=O)[C@H](Cc2c[nH]c3c(Cl)cccc23)NC(=O)[C@H](Cc2ccncc2)NC(=O)[C@H](CC(N)=O)NC(=O)[C@H](CCC(=O)O)N(C)C(=O)[C@H](Cc2c[nH]c3ncccc23)NC(=O)[C@H](CO)NC(=O)[C@H](Cc2ccncc2)NC1=O [SEQ ID NO. 274] ([Nle][4Pal]S[Trp(7-aza)][NMeE]N[4Pal][Trp(7-Cl)][αMeS][Phe(4-COOH)]Y[Sar][αMeW]C-NH2; linker N-14 via X57) | 3.2
CCCC[C@@H]1NC(=O)[C@@H]2CC[C@@H](C2)NC(=O)[C@H]([C@@H](C)c2c[nH]c3c(OC)cccc23)NC(=O)CN(C)C(=O)[C@H](Cc2cccc(C(N)=O)c2)NC(=O)[C@H](Cc2ccc(C(=O)O)cc2)NC(=O)[C@](C)(CO)NC(=O)[C@H](Cc2c[nH]c3c(Cl)cccc23)NC(=O)[C@H](Cc2ccncc2)NC(=O)[C@H](CC(N)=O)NC(=O)CN(CCC(=O)O)C(=O)[C@H](Cc2c[nH]c3ccccc23)NC(=O)[C@@H]2CCCCN2C(=O)[C@H](Cc2ccncc2)NC1=O [SEQ ID NO. 202] (cyclo([X1][Nle][4Pal][Pip]W[N(CH2CH2COOH)Gly]N[4Pal][Trp(7-Cl)][αMeS][Phe(4-COOH)][Phe(3-CONH2)][Sar][Trp(βS-Me,7-OMe)])) | 1.4
